The entries are a selection whose mix differs from that of the whole data set. The source made the active and inactive calls.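 The calls were made as follows: active = inhibition of 50% or more, scaled per plate between neutral and stimulator controls; inactive = the rest.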
assay: blockers of Ca2+-induced mitochondrial swelling – biochemical, isolated mouse mitochondria, absorbance, primary screen (AID 602449); conditions: 30 min, at 10 µM, active compounds read high;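 also: 0% = DMSO wells given calcium and 100% = 1 mM EGTA wells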

inhibition, active:
Cc1ccc(-c2cc(C(=O)N3N=C(C(F)F)CC3(O)C(F)F)c3ccccc3n2)cc1C (stereo not given) 82%
O=[N+]([O-])c1ccc(-c2nc(-c3cccs3)c(-c3cccs3)[nH]2)cc1 98.9%
CC(C)(C)C1CCC2(CC1)C(C#N)=C(SCC(=O)Nc1ccccc1)NC(=O)C2C#N (stereo not given) 95.4%
CC(C)C(=O)NC(Nc1cc(C(F)(F)F)ccc1Cl)C(Cl)(Cl)Cl (stereo not given) 98.5%
O=C(Nc1ccccc1)c1ccccc1NS(=O)(=O)c1ccc(Cl)s1 87.8%
Cc1ccc(S(=O)(=O)N2CCN(c3ncnc4ccccc34)CC2)cc1 93%
Cc1cc(/C=C\c2ccc3cc(N(C)C)ccc3[n+]2C)c(C)n1-c1ccccc1 133%
CCc1ccc(-n2cccc2/C=C2/C(=N)N3C(=NC2=O)SN=C3S(C)(=O)=O)cc1 67.1%
O=C(Nc1ccncc1)c1ccc(-c2ccccc2)cc1 97.1%
COc1cccc(C(=O)NN/C(C)=C/C(=O)C(F)(F)C(F)(F)C(F)(F)F)c1 73.3%
